Consider one molecule from US11197904B2, “Pharmaceutical compositions for preventions and managements of dementia, infectious diseases, cancers, periodontitis, dental caries, diabetes, obesity, osteoporosis and chronic pain and methods thereof” (Chung Shan Medical University, priority 2018, dated 2021).

Converted amounts (≈) assume the structure as drawn.

What all share (assay): microbe, parasite or virus in culture
Experiment [1] concerns Staphylococcus aureus (S.a). To be noted: read-out: IC50, 50% inhibition on bacterial proliferation, S. a.
Experiment [2] relates to Streptococcus mutans (S.m., UA159). To be noted: read-out: IC50, 50% inhibition on bacterial proliferation, UA159.
Experiment [3] has as its system Pseudomonas aeruginosa (P.a.). To be noted: read-out: IC50, 50% inhibition on bacterial proliferation, P. a.

Turning to `CSc1ccc2c(c1)N(CCC1CCCCN1C)c1ccccc1S2` (stereo not drawn) [Thioridazine], the IC50 in experiment [1] was 13 µg/mL (≈ 35.1 µM); in experiment [2] it was 12 µg/mL (≈ 32.4 µM); in experiment [3] it was 104 µg/mL (≈ 281 µM).
